# These are yes or no findings as the source states them, for the method shown. For part of these data: Binding seen in cells or lysates may run through a third protein. Some binding calls cover weakened binding; strength is not graded here.
# Amino acid sequences for entries named in this document (tags omitted).
# UniProt O75925: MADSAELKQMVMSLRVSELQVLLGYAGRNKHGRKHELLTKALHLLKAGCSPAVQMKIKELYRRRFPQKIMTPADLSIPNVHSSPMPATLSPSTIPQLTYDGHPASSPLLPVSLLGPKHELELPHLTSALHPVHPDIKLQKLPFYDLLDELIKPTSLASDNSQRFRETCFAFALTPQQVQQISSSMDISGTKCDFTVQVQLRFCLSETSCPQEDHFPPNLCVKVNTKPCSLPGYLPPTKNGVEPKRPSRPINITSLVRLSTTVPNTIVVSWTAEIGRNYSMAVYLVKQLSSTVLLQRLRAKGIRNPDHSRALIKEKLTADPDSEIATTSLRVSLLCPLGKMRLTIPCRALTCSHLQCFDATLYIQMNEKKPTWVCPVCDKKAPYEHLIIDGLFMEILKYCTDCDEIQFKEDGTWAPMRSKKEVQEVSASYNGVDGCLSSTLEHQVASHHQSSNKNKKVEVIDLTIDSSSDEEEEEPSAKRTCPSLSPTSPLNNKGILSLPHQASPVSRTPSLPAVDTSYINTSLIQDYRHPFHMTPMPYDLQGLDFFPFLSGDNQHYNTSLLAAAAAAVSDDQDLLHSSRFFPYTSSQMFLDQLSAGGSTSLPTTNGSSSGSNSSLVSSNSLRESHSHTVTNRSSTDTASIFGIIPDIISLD
# UniProt Q9H4L4: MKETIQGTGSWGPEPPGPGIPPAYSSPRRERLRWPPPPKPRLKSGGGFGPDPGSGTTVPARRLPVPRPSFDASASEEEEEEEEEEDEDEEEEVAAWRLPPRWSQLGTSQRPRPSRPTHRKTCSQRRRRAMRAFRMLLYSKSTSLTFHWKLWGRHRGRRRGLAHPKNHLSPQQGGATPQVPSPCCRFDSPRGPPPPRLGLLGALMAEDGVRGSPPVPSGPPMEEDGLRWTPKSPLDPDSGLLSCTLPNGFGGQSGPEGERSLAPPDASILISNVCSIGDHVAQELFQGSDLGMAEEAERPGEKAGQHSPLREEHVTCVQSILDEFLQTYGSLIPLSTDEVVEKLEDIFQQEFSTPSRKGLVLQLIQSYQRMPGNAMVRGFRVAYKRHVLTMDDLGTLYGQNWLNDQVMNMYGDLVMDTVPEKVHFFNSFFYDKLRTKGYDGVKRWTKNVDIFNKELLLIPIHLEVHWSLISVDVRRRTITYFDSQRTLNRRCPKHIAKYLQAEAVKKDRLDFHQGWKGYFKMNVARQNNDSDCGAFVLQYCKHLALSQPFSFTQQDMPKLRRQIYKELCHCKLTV
# What was measured:
# [1] = target: Flag-4KR (complexed with RAD50) (UniProt P49959); experiment: pull-down; Supplementary Fig. 3b, legend not shown; the methods tell of Flag-WT-MRE11 and Flag-4KR (complexed with RAD50) incubated with MBP-PIAS1 in T50 buffer, anti-Flag M2 or amylose beads; both purified
# [2] = target: Flag-WT-MRE11 (complexed with RAD50) (UniProt P49959); experiment: as above
# [3] = target: Flag-WT-MRE11 (complexed with RAD50) (UniProt P49959); experiment: pull-down; purified proteins incubated in T50 buffer (25 mM Tris-HCl pH 7.5, 10% glycerol, 0.5 mM EDTA, 50 mM KCl, 1 mM DTT, 0.01% Igepal) on ice for 2 h, pulled down by anti-Flag M2 beads; supernatant and eluate immunoblotted; both purified
# MRE11 = target: T1, MRE11 (UniProt P49959); experiment: co-IP; mutual co-IP of MRE11 and SENP3 in cells; with or without DNA damage, ATMi or ATRi
# T1 sequence: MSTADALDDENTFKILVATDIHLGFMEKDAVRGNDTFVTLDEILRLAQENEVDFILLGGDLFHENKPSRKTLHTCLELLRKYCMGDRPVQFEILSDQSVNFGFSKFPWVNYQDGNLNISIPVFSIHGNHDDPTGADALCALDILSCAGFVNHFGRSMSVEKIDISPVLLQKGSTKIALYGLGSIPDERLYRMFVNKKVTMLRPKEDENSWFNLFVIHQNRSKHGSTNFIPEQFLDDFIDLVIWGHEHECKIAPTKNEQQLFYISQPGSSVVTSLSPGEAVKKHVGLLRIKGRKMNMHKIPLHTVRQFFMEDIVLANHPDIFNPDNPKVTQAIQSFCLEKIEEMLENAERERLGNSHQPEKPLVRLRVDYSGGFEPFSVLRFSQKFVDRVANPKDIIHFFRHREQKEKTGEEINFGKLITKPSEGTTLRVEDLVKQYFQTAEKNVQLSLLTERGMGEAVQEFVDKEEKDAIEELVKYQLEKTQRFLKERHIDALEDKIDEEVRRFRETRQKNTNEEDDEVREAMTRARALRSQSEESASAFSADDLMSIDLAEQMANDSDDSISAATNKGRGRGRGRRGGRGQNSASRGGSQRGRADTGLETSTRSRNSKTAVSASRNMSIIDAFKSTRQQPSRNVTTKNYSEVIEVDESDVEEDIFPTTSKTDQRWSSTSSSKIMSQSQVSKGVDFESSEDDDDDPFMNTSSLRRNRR
# SFB-MRE11 = target: T2, SFB-MRE11 (UniProt P49959); experiment: co-IP; SFB-MRE11 as bait in HEK293T cells, endogenous PIAS1 detected; with or without CPT
# T2 sequence: T1 sequence
# MBP-PIAS1 = MBP-PIAS1 (UniProt O75925); experiment: pull-down; purified proteins in T50 buffer, pulled down with amylose beads; MBP-PIAS1 (150 nM) and Flag-MRE11 (50 nM), also with overhang DNA (90 nM), which promoted the interaction; both purified
substance,measurement,setting,value
MBP-PIAS1 (from UniProt O75925 1-651) (enzyme),binding,[1],binds
same,binding,[2],binds
same,binding,[3],binds
SENP3 (from UniProt Q9H4L4 1-574) (enzyme),binding,MRE11,binds
endogenous PIAS1 (from UniProt O75925 1-651),binding,SFB-MRE11,binds
Flag-WT-MRE11 (complexed with RAD50) (from UniProt P49959 1-708; Q92878 1-1312),binding,MBP-PIAS1,binds
